PubChem BioAssay AID1259254 | NCATS – 2017
The whole screen tested about 59,000 reagents; shown is a part drawn at random. About 1,550 of them (2.6%) count as active. 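G2 share is only a proxy for re-replication; each gene was hit by three separate siRNAs, and active genes were retested.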 The numbers tell different reagents against one gene apart. Further read-outs or replicates are left out here. The record does not give: the amount of reagent.

Aim: 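Gene knock-downs that lead to re-replication, shown by excess G2 DNA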 (primary screen)
System: human HCT116 colorectal cancer cells
Reagent: single siRNA against human genes
Time to read-out: 3 days
Detection: 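Imaged Hoechst DNA stain sorts each cell into a cycle phase by DNA amount; per plate, G2 fraction set to 0% for non-targeting and 100% for GMNN siRNA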
Scale: G2 robust z-score: higher = more G2 cells, more excess DNA replication
Call rule: 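Active siRNAs have a G2 robust z of 5 or more median absolute deviations over the median, which in these data means about 38% or higher of GMNN control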

G2 robust z-score, by gene and reagent
VGLL2: #1 1.04 inactive; #2 -0.279 inactive; #3 -0.601 inactive
CLPSL2: #1 0.272 inactive; #2 0.264 inactive; #3 -0.902 inactive
DBN1: #1 -0.602 inactive; #2 -0.937 inactive; #3 0.444 inactive
NEDD9: #1 -0.469 inactive; #2 -1.14 inactive; #3 -1.43 inactive
FAM25EP: #1 -0.658 inactive; #2 3.77 inactive; #3 -1.11 inactive
LTF: #1 -1.04 inactive; #2 1.93 inactive; #3 -0.528 inactive
TUBB4B: #1 -0.188 inactive; #2 9.61 active; #3 -0.687 inactive
RARS2: #1 -0.0338 inactive; #2 -1.07 inactive; #3 -0.507 inactive
CSTL1: #1 0.488 inactive; #2 1.85 inactive; #3 0.197 inactive
SYT13: #1 1.74 inactive; #2 -1.45 inactive; #3 0.216 inactive
POLR1B: #1 0.391 inactive; #2 1.47 inactive; #3 0.793 inactive
GNPTAB: #1 -0.83 inactive; #2 -0.404 inactive; #3 2.84 inactive
MT1F: #1 1.58 inactive; #2 2.17 inactive; #3 2.76 inactive
SAMD4B: #1 -1.51 inactive; #2 0.481 inactive; #3 -0.0195 inactive
CCDC146: #1 -0.671 inactive; #2 -1.49 inactive; #3 -0.448 inactive
UNC5B: #1 1.33 inactive; #2 1.26 inactive; #3 1.28 inactive
ARHGAP28: #1 -0.0299 inactive; #2 -0.242 inactive; #3 1.98 inactive
DUSP16: #1 -0.0772 inactive; #2 -0.582 inactive; #3 1.45 inactive
LOC729866 (retired record): #1 2.95 inactive; #2 -1.18 inactive; #3 -0.489 inactive
ATP8A1: #1 -0.839 inactive; #2 -0.347 inactive; #3 -1.26 inactive
SLC25A38: #1 0.795 inactive; #2 3.15 inactive; #3 -0.438 inactive
BTBD16: #1 -0.225 inactive; #2 -0.663 inactive; #3 1.48 inactive
NEK10: #1 -0.404 inactive; #2 -0.941 inactive; #3 0.0413 inactive

Called active (from the list above):
G2 robust z-score, by gene and reagent
TUBB4B: #2 9.61 active
